Assay results published in patent publication US11999770B2 (University of Bradford, priority 2016, dated 2024).
Where no end group is shown, it is not given here.

Experiment: peptide synthesis
Details: whole synthesis

## CAQGEPGVGFK
  purity (crude or final not stated): 94%
